Test results published in PMC10014099.

Columns and labels:
HA-Plek2 (pleckstrin-2) = target: T1, HA-Plek2 (pleckstrin-2) (UniProt Q9WV52); assay: co-IP; IP with anti-HA magnetic beads from lysate of 293T cells transfected with HA-Plek2, Western blot
T1 sequence: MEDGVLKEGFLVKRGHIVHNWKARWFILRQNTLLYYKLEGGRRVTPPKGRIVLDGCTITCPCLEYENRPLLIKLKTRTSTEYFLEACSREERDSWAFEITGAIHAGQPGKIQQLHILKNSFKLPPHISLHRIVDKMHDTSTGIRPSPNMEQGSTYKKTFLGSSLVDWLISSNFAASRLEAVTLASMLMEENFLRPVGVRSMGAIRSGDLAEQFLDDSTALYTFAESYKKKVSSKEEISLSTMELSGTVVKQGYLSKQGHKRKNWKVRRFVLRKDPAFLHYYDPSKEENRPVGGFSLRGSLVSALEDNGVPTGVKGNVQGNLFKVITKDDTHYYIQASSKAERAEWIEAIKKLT

Flag-Plek2 = target: T2, Flag-Plek2 (UniProt Q9WV52); assay: co-IP; IP with anti-FLAG magnetic beads from lysate of 293T cells transfected with Flag-Plek2, Western blot; also after 20 uM NUP-17d for 2 hours
T2 sequence: T1 sequence

GST-Plek2 [1] = target: T3, GST-Plek2 (UniProt Q9WV52); assay: pull-down; GST pull-down of GST-Plek2 or GST-DEP with purified His-AKT, Akt detected by Western blot; also with or without 500 uM NUP-17d; both purified
T3 sequence: T1 sequence

GST-Plek2 DEP domain = target: T4, GST-Plek2 DEP domain (UniProt Q9WV52); assay: as above
T4 sequence: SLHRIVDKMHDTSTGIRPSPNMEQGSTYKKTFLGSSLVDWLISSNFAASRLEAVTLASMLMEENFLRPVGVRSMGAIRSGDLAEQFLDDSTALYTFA

GST-Plek2 [2] = target: T3, GST-Plek2; assay: pull-down; GST pull-down of GST-Plek2 incubated with lysate of 293T cells, Western blot; only the target purified

For Akt (human (endogenous in 293T)), the binding (HA-Plek2 (pleckstrin-2)) was “binds” and the binding (Flag-Plek2) was “binds”.
In the case of His-AKT, the binding (GST-Plek2 [1]) is reported as “binds” and the binding (GST-Plek2 DEP domain) is reported as “binds”.
For PDK2 (human (endogenous in 293T)), the binding (GST-Plek2 [2]) was “binds”.

These are yes or no findings as the source states them, for the method shown. A result given as binding can be weak or reduced; the word gives no strength. Tags and fused reporters may be left off the sequences shown. For some assays here: In cells and extracts the contact can be indirect.
